According to the supplement of paper PMC10849652:
The list shows a part of the results.

Protein sequences, listed by entry. Tags and fused reporters are not part of them. Lines headed by an entry give the natural chain unless they say otherwise; changes in a name come on top.
UniProt Q9NTZ6: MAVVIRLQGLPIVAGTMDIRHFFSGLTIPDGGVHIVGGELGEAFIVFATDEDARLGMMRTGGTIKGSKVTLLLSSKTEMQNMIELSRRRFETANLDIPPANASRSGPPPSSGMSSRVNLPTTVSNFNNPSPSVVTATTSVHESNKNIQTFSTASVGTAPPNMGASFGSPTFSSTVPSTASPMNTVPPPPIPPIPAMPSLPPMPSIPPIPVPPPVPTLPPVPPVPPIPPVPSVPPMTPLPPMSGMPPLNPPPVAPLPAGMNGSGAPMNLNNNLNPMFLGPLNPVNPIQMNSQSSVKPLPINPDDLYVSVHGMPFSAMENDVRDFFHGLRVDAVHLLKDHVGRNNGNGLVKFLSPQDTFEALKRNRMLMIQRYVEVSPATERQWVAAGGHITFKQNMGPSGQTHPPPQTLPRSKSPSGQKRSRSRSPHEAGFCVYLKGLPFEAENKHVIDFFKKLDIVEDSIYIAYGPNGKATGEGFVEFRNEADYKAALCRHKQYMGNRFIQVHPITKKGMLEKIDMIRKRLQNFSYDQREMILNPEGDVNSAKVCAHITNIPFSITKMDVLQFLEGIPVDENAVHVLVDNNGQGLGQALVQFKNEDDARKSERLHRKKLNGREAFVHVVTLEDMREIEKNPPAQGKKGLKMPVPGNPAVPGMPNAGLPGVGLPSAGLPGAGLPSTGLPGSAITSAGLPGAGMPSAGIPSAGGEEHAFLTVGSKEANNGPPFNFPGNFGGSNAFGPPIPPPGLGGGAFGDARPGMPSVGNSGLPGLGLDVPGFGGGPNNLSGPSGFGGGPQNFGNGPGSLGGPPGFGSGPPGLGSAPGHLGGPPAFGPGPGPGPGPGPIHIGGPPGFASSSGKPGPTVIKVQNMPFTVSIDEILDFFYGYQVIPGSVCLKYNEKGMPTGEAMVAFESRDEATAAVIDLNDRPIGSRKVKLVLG
UniProt Q92878: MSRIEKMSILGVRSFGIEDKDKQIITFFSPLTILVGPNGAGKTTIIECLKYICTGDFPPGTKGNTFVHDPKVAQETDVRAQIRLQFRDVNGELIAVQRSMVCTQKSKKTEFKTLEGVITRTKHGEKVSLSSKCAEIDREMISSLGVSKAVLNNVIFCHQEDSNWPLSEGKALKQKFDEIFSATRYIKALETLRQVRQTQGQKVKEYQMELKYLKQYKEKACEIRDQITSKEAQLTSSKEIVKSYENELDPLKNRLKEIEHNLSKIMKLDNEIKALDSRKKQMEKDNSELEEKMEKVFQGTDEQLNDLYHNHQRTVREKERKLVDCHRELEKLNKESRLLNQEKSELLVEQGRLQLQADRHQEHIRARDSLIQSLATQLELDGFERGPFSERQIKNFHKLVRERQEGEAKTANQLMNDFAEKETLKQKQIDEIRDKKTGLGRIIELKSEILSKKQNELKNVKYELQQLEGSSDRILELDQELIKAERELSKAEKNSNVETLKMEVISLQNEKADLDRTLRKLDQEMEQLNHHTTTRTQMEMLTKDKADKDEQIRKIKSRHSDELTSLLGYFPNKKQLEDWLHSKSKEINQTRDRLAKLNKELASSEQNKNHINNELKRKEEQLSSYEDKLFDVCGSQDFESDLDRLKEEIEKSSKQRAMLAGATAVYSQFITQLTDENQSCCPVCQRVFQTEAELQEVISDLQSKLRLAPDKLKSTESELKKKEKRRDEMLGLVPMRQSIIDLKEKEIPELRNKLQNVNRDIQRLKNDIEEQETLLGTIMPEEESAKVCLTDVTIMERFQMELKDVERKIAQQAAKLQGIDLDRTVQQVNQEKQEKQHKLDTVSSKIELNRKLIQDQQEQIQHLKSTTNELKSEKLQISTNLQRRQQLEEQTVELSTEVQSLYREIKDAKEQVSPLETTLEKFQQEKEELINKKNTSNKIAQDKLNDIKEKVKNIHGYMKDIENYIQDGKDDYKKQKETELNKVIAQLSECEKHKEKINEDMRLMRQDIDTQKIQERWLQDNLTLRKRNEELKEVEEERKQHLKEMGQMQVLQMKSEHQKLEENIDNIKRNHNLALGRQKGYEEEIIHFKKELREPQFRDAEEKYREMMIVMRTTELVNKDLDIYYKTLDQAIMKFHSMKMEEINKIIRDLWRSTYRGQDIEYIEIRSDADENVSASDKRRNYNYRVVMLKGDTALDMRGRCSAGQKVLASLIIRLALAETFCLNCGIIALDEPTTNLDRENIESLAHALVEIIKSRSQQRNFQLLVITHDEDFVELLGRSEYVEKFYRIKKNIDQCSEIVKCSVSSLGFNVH
UniProt Q9BUV8: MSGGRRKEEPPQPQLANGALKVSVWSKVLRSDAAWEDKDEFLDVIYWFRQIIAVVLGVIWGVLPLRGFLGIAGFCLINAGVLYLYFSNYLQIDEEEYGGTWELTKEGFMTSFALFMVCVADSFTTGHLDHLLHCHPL
UniProt Q96I25: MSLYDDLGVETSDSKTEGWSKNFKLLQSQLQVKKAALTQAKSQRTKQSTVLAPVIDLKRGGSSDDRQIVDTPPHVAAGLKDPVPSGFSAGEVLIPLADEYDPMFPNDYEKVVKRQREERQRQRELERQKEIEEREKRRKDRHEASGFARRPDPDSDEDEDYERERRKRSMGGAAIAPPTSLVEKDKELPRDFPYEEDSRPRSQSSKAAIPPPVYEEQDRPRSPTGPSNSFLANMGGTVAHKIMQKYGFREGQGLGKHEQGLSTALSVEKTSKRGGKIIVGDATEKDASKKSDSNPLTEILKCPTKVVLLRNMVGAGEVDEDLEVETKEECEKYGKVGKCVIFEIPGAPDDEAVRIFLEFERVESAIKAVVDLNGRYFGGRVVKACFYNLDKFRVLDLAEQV
UniProt Q9H082: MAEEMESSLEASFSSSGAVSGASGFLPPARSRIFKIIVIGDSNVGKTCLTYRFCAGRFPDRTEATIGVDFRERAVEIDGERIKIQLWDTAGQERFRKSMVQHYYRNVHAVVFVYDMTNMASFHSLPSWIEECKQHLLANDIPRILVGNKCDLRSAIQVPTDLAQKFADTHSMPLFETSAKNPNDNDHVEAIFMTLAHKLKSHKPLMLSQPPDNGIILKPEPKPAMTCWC
UniProt Q8N0T1: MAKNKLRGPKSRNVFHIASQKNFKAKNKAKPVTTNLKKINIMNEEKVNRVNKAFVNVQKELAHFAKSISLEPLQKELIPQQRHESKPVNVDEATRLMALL
UniProt Q8TDY2, whole entry, looked up: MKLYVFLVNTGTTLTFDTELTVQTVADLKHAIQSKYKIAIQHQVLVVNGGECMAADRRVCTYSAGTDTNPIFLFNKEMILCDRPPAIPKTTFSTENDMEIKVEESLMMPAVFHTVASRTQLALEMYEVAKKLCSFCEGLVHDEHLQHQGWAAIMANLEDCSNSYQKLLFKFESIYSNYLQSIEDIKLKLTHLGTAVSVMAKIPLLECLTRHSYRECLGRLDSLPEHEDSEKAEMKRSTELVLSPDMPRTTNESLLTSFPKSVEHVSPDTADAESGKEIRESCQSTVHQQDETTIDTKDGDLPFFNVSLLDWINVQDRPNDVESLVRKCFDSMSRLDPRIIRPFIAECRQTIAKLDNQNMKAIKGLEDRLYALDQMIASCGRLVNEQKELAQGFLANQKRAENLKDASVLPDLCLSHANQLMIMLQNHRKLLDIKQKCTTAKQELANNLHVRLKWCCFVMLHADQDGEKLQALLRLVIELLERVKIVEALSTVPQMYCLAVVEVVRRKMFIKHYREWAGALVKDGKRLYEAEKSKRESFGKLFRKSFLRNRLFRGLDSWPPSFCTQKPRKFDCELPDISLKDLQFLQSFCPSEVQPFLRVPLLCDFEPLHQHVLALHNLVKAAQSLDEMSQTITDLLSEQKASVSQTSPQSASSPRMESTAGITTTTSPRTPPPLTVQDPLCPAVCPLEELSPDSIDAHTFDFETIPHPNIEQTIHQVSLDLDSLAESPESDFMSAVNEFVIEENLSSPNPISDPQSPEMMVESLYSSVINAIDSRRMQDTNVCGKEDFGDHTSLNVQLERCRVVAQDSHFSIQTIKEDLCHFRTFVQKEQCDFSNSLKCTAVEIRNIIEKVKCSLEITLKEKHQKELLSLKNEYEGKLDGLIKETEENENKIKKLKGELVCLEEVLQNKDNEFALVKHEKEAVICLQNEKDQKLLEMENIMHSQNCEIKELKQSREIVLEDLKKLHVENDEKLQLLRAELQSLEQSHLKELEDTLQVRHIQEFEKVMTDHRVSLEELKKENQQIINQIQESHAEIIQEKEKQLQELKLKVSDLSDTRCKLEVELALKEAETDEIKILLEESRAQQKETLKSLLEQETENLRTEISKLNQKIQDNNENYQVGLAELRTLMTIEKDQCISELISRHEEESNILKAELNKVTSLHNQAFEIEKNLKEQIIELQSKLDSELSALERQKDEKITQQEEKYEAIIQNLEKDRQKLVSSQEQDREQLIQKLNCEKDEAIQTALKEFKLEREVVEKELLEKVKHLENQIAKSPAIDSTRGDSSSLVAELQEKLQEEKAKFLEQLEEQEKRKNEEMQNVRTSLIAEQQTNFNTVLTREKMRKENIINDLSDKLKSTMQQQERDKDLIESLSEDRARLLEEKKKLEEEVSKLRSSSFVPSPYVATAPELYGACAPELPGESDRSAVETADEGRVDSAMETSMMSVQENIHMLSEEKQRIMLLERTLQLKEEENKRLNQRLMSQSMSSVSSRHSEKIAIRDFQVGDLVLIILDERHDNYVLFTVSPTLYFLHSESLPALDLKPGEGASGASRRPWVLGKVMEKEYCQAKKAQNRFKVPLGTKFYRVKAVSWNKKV
UniProt Q06609, whole entry, looked up: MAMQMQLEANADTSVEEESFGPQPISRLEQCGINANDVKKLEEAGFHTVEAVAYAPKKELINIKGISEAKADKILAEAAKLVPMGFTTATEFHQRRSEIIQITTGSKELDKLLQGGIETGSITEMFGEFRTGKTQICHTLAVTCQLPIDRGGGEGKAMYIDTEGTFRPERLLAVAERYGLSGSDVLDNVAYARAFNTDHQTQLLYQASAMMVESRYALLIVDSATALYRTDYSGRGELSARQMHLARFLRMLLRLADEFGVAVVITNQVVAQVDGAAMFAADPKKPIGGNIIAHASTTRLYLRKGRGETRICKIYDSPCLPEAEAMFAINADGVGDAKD
UniProt P11233: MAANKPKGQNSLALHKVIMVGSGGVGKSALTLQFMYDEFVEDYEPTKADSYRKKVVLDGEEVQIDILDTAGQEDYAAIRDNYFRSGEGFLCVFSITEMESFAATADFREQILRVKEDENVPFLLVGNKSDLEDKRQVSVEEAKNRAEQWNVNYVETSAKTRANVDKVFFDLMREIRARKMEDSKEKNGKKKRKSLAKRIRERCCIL
UniProt P51151: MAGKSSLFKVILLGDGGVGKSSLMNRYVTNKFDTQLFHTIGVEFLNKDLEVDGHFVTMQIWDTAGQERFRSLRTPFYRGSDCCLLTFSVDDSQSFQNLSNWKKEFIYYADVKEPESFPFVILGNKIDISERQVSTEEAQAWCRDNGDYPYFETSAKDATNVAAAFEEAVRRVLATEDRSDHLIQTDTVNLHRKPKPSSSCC
UniProt Q96D70: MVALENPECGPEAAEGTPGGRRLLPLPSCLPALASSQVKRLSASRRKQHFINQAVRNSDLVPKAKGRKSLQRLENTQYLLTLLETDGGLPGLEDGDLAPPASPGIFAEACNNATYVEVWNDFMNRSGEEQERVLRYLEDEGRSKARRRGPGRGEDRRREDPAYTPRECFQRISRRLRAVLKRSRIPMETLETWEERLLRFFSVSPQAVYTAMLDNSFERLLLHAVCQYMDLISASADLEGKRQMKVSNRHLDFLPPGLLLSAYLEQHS

Compound: CNC(=O)C1=CC=CC=C1NC2=NC(=NC=C2Cl)NC3=C(C=C(C=C3)N4CCOCC4)OC
Assay: log2 fold change, soluble protein after heating vs DMSO (PISA); higher = thermal stabilisation; K562 cells, 10 uM, 30 min; active = over 0.2 and 3.5 SD of the protein, either way, in both replicates (recomputed)
In short: (§1)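 For each measurement, 10 μM compound was applied for 30 min to K562 cells at 2×10^6 cells/mL. Aliquots were heated for 3 min across 48°C-58°C, pooled, and extracted in PBS with 0.5% NP-40 at 4°C; the supernatant after 21,000xg for 90 min was soluble protein. This was quantified by TMTpro 16plex LC-MS/MS with channel sums equalised, and thermal stability was reported relative to control samples from duplicates, on a log2 fold-change scale.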

Target | log2 fold change
RBM22 (UniProt Q9NW64) | inactive: -0.037
RBM12 (UniProt Q9NTZ6) | inactive: 0.008
RBM27 (UniProt Q9P2N5) | active: -0.297
RAF1 isoform 2 (UniProt P04049) | inactive: 0.078
RAD51D (UniProt O75771) | inactive: -0.113
RABGAP1L isoform 3 (UniProt Q5R372) | inactive: 0.018
RAB40C (UniProt Q96S21) | inactive: 0.125
RABGGTA (UniProt Q92696) | inactive: -0.034
RARS (UniProt P54136) | inactive: -0.073
RANBP2 (UniProt P49792) | inactive: 0.886
RAPGEF4 (UniProt Q8WZA2) | inactive: -0.114
RAD50 isoform 2 (UniProt Q92878) | inactive: 0
RAB11FIP1 (UniProt Q6WKZ4) | inactive: 0.045
RAB5IF isoform 5 (UniProt Q9BUV8) | inactive: -0.08
RAC3 (UniProt P60763) | inactive: -0.064
RBM17 (UniProt Q96I25) | inactive: -0.03

Target | log2 fold change
RAB33B (UniProt Q9H082) | inactive: -0.01
RAP1GDS1 isoform 5 (UniProt P52306) | inactive: 0.006
RBIS (UniProt Q8N0T1) | inactive: -0.026
RBM26 isoform 2 (UniProt Q5T8P6) | inactive: -0.074
RB1CC1 (UniProt Q8TDY2) | inactive: -0.051
RARS2 (UniProt Q5T160) | inactive: -0.035
RAD51 (UniProt Q06609) | active: 0.337
RBM14 (UniProt Q96PK6) | inactive: 0.038
RAVER1 (UniProt E9PAU2) | inactive: -0.069
RALA (UniProt P11233) | inactive: -0.045
RABGAP1L isoform 5 (UniProt Q5R372) | inactive: -0.014
RAB9A (UniProt P51151) | inactive: -0.054
RBBP7 (UniProt Q16576) | inactive: -0.033
RAC1 (UniProt P63000) | inactive: -0.009
R3HDM4 (UniProt Q96D70) | inactive: 0.002

Compound: CNC(=O)c1ccc(Nc2ncc(C(F)(F)F)c(NCc3nccnc3N(C)S(C)(=O)=O)n2)cc1 [defactinib]
Assay: as above
In short: as §1

Target | log2 fold change
RBM22 (UniProt Q9NW64) | inactive: -0.05
RBM12 (UniProt Q9NTZ6) | inactive: -0.27
RBM27 (UniProt Q9P2N5) | active: -0.303
RAF1 isoform 2 (UniProt P04049) | inactive: -0.075
RAD50, A0A494C0Y7 | inactive: -0.146
RAD51D (UniProt O75771) | inactive: 0.051
RABGAP1L isoform 3 (UniProt Q5R372) | inactive: -0.055
RAB40C (UniProt Q96S21) | inactive: -0.084
RABGGTA (UniProt Q92696) | inactive: -0.034
RARS (UniProt P54136) | inactive: 0.187
RANBP2 (UniProt P49792) | inactive: -0.009
RAPGEF4 (UniProt Q8WZA2) | inactive: -0.057
RAD50 isoform 2 (UniProt Q92878) | inactive: -0.103
RAB11FIP1 (UniProt Q6WKZ4) | inactive: -0.16
RAB5IF isoform 5 (UniProt Q9BUV8) | inactive: -0.01
RAC3 (UniProt P60763) | inactive: 0.011
RBM17 (UniProt Q96I25) | inactive: -0.174
RAB33B (UniProt Q9H082) | inactive: -0.005
RAP1GDS1 isoform 5 (UniProt P52306) | inactive: -0.017
RBIS (UniProt Q8N0T1) | inactive: 0.058
RBM26 isoform 2 (UniProt Q5T8P6) | active: -0.489
RB1CC1 (UniProt Q8TDY2) | inactive: -0.042
RARS2 (UniProt Q5T160) | inactive: -0.064
RAD51 (UniProt Q06609) | inactive: 0.027
RBM14 (UniProt Q96PK6) | inactive: -0.192
RAVER1 (UniProt E9PAU2) | inactive: -0.322
RALA (UniProt P11233) | inactive: 0.017
RAB9A (UniProt P51151) | inactive: 0
RAC1 (UniProt P63000) | inactive: -0.012
R3HDM4 (UniProt Q96D70) | inactive: 0.019

Compound: CNCc1ccc(-c2[nH]c3cc(F)cc4c3c2CCNC4=O)cc1 [rucaparib]
Assay: as above
In short: as §1

Target | log2 fold change
RBM22 (UniProt Q9NW64) | inactive: 0.04
RBM12 (UniProt Q9NTZ6) | inactive: -0.109
RBM27 (UniProt Q9P2N5) | inactive: -0.015
RAF1 isoform 2 (UniProt P04049) | inactive: 0.125
RAD50, A0A494C0Y7 | inactive: -0.206
RAD51D (UniProt O75771) | inactive: -0.083
RABGAP1L isoform 3 (UniProt Q5R372) | inactive: -0.05
RAB40C (UniProt Q96S21) | inactive: -0.036
RABGGTA (UniProt Q92696) | inactive: -0.015
RARS (UniProt P54136) | inactive: 0.367
RANBP2 (UniProt P49792) | inactive: -0.028
RAPGEF4 (UniProt Q8WZA2) | inactive: -0.063
RAD50 isoform 2 (UniProt Q92878) | inactive: 0.006
RAB11FIP1 (UniProt Q6WKZ4) | inactive: -0.012
RAB5IF isoform 5 (UniProt Q9BUV8) | inactive: -0.014
RAC3 (UniProt P60763) | inactive: -0.134

Target | log2 fold change
RBM17 (UniProt Q96I25) | inactive: 0.055
RANBP6 (UniProt O60518) | inactive: 0.168
RAB33B (UniProt Q9H082) | inactive: 0.035
RAP1GDS1 isoform 5 (UniProt P52306) | inactive: -0.006
RBIS (UniProt Q8N0T1) | inactive: -0.048
RBM26 isoform 2 (UniProt Q5T8P6) | inactive: -0.039
RB1CC1 (UniProt Q8TDY2) | inactive: 0.09
RARS2 (UniProt Q5T160) | inactive: 0.003
RAD51 (UniProt Q06609) | inactive: -0.035
RBM14 (UniProt Q96PK6) | inactive: 0.185
RAVER1 (UniProt E9PAU2) | inactive: -0.186
RALA (UniProt P11233) | inactive: 0.002
RAB9A (UniProt P51151) | inactive: -0.017
RBBP7 (UniProt Q16576) | inactive: -0.008
RAC1 (UniProt P63000) | inactive: 0.075
R3HDM4 (UniProt Q96D70) | inactive: 0.034
